The record followed here is publication PMC3526400.

Amino acid sequences for entries named in this document (tags omitted). Residues count along the entry.
UniProt P04785, residues 20-509: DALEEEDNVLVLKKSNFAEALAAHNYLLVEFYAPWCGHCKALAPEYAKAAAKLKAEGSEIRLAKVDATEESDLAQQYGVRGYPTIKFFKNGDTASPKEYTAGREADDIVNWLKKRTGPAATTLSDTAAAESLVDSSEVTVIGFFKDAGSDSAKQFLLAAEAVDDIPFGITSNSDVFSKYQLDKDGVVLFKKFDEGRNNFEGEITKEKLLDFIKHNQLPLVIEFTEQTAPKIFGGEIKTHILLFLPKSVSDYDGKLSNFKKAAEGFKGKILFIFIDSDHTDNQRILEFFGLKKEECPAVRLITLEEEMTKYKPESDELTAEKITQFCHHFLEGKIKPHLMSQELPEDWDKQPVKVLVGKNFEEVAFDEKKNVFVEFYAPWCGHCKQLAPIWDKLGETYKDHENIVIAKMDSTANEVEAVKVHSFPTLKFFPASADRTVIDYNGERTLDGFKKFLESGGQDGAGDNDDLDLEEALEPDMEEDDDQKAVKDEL
UniProt P07632: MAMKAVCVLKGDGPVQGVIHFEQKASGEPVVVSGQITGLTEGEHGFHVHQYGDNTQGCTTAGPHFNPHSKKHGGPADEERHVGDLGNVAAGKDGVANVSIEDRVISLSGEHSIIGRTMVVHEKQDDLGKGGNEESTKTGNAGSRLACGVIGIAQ

The target of test [1] is protein disulfide isomerase (PDI) (rat (endogenous in primary astrocytes of neonatal Wistar rats)) (UniProt P04785). The test is described as follows: co-IP; whole-cell lysates of cultured rat astrocytes (normoxic control, OGD 8 h, OGD/reperfusion), precleared with protein A-Sepharose; anti-SOD1 or anti-PDI antibody with protein A-Sepharose CL-4B overnight at 4°C; washed in Tris buffer; immunoblot.

The target in test [2] is copper-zinc superoxide dismutase (SOD1) (rat (endogenous in primary astrocytes of neonatal Wistar rats)) (UniProt P07632). The description is as above.

No constants are given. Whether binding was seen depends on the method and setting. Binding seen in cells or lysates may run through a third protein. Some entries that bind do so weakly or less than the wild type.

As for “copper-zinc superoxide dismutase (SOD1) (from UniProt P07632 1-154)”, the binding entry in test [1] is on record as “binds”.

On to “protein disulfide isomerase (PDI) (from UniProt P04785 20-509)”, for which the binding result in test [2] is on record as “binds”.
